Results from patent US5990276A, “Synthetic inhibitors of hepatitis C virus NS3 protease” (Schering Corporation, priority 1997, dated 1999).
At least one compound was matched to its structure with a doubt left. Bridge positions count the residues as written; N and C are the ends. Square brackets hold non-standard residues; d marks the D form. Peptide text beside a SMILES is read from it. I, II: the chains in the order shown. Ahx = NCCCCCC(=O)O

Amino acid sequences for entries named in this document (tags omitted). Residues count along the entry.
UniProt P27958, 1028-1209: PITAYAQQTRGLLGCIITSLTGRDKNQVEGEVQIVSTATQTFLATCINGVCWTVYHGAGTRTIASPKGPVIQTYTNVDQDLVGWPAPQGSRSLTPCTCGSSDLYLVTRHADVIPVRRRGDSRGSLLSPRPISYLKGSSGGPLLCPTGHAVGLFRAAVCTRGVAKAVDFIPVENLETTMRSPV

Biological target: T1, HCV NS3 protease (Hepatitis C virus genotype 1a, UniProt P27958)
T1 construct: HT (hydrophilic solubilizing tail) (C); made in house; host or cells: E. coli M15 [pREP4]
Test: HPLC assay of inhibition of HCV NS3 protease cleavage of the 5A/5B substrate
Type: biochemical
Conditions: HCV NS4A cofactor 0.05 μM-0.1 μM; 5A/5B substrate 50 μM; approximately 2 hours at 30° C.; HPLC readout; read-out: IC50 (concentration which produced 50% inhibition of the HCV NS3 protease), bivalent inhibitors
Protocol: Into an aqueous solution containing 25 mM TRIS, 50 mM NaCl, 0.5 mM EDTA, 10% glycerol and 0.1% NP40 was placed the potential inhibitor, the HCV NS3 protease at a concentration of 0.05 μM-[…], the HCV NS4A cofactor at a concentration of 0.05 μM-0.1 μM and the 5A/5B substrate at a concentration of 50 μM. This solution was then incubated for approximately 2 hours at 30° C. after which the solution was applied to an HPLC to determine if the 5A/5B remained intact and thus the compound was determined to be an inhibitor. […] The potential inhibitors were assayed at several different concentrations to determine the concentration which produced 50% inhibition of the HCV NS3 protease.

Compound	IC50
CC[C@H](C)[C@H](NC(=O)[C@H](CCCNC(=N)N)NC(=O)CNC(=O)[C@@H](NC(=O)[C@@H](NC(=O)[C@@H](NC(=O)[C@@H](NC(=O)[C@H](CS)NC(=O)CCCCCNC(=O)CCCCCNC(=O)[C@H](CS)NC(=O)[C@H](CS)NC(=O)[C@@H](NC(=O)[C@@H](NC(=O)[C@H](CC(=O)O)NC(=O)[C@@H](N)CCC(=O)O)C(C)C)C(C)C)C(C)C)C(C)C)[C@@H](C)CC)C(C)C)C(=O)N[C@H](C(=O)N[C@@H](CC(C)C)C(=O)N[C@@H](CO)C(=O)NCC(=O)N[C@@H](CCCCN)C(=O)O)C(C)C [SEQ ID NO: 1, Glu-Asp-Val-Val-Cys-Cys-Acp-Acp-Cys-Val-Val-Ile-Val-Gly-Arg-Ile-Val-Leu-Ser-Gly-Lys] (H-EDVVCC[Ahx][Ahx]CVVIVGRIVLSGK-OH; N-terminus assumed)	0.6 µM
CC[C@H](C)[C@H](NC(=O)[C@H](CCCN=C(N)N)NC(=O)CNC(=O)[C@@H](NC(=O)[C@@H](NC(=O)[C@@H](NC(=O)[C@@H](NC(=O)[C@H](CS)NC(=O)CCCCCNC(=O)[C@H](CS)NC(=O)[C@H](CS)NC(=O)[C@@H](NC(=O)[C@@H](NC(=O)[C@H](CC(=O)O)NC(=O)[C@@H](N)CCC(=O)O)C(C)C)C(C)C)C(C)C)C(C)C)[C@@H](C)CC)C(C)C)C(=O)N[C@H](C(=O)N[C@@H](CC(C)C)C(=O)N[C@@H](CO)C(=O)NCC(=O)N[C@@H](CCCCN)C(=O)N[C@@H](CCCCN)C(=O)O)C(C)C [SEQ ID NO: 2, Glu-Asp-Val-Val-Cys-Cys-Acp-Cys-Val-Val-Ile-Val-Gly-Arg-Ile-Val-Leu-Ser-Gly-Lys-Lys] (H-EDVVCC[Ahx]CVVIVGRIVLSGKK-OH)	3 µM
CC[C@H](C)[C@H](NC(=O)[C@H](CCCNC(=N)N)NC(=O)CNC(=O)[C@@H](NC(=O)[C@@H](NC(=O)[C@@H](NC(=O)[C@@H](NC(=O)[C@@H](N)CS)C(C)C)C(C)C)[C@@H](C)CC)C(C)C)C(=O)N[C@H](C(=O)N[C@@H](CC(C)C)C(=O)N[C@@H](CO)C(=O)NCC(=O)N[C@@H](CCCCN)C(=O)NCCCC[C@H](NC(=O)CCCCCNC(=O)[C@H](CS)NC(=O)[C@H](CS)NC(=O)[C@@H](NC(=O)[C@@H](NC(=O)[C@H](CC(=O)O)NC(=O)[C@H](CCC(=O)O)NC(C)=O)C(C)C)C(C)C)C(N)=O)C(C)C [SEQ ID NO: 3, Glu-Asp-Val-Val-Cys-Cys-Acp-Xaa-Lys-Gly-Ser-Leu-Val-Ile-Arg-Gly-Val-Ile-Val-Val-Cys] (I: H-CVVIVGRIVLSGK / II: Ac-EDVVCC[Ahx]K-NH2; amide I:C-II:8; N-terminus assumed)	3 µM
CC[C@H](C)[C@H](NC(=O)[C@H](CCCNC(=N)N)NC(=O)CNC(=O)[C@@H](NC(=O)[C@@H](NC(=O)[C@@H](NC(=O)[C@@H](NC(=O)[C@@H](N)CS)C(C)C)C(C)C)[C@@H](C)CC)C(C)C)C(=O)N[C@H](C(=O)N[C@@H](CC(C)C)C(=O)N[C@@H](CO)C(=O)NCC(=O)N[C@@H](CCCCN)C(=O)NCCCC[C@H](NC(=O)[C@H](CS)NC(=O)[C@H](CS)NC(=O)[C@@H](NC(=O)[C@@H](NC(=O)[C@H](CC(=O)O)NC(=O)[C@@H](N)CCC(=O)O)C(C)C)C(C)C)C(=O)N[C@@H](CCCCN)C(=O)O)C(C)C [SEQ ID NO: 4, Glu-Asp-Val-Val-Cys-Cys-Xaa-Lys-Gly-Ser-Leu-Val-Ile-Arg-Gly-Val-Ile-Val-Val-Cys] (I: H-CVVIVGRIVLSGK / II: H-EDVVCCKK-OH; amide I:C-II:7; N-terminus assumed)	3 to 30 µM
